Assay results as given in article PMC6796342.
These are yes or no findings as the source states them, for the method shown. In cells and extracts the contact can be indirect. Some results given as binding are weak or reduced against the parent protein; the word gives no strength. Where a sequence is shown, tags or fusion partners need not be part of it.

Amino acid sequences for entries named in this document (tags omitted).
UniProt P46937: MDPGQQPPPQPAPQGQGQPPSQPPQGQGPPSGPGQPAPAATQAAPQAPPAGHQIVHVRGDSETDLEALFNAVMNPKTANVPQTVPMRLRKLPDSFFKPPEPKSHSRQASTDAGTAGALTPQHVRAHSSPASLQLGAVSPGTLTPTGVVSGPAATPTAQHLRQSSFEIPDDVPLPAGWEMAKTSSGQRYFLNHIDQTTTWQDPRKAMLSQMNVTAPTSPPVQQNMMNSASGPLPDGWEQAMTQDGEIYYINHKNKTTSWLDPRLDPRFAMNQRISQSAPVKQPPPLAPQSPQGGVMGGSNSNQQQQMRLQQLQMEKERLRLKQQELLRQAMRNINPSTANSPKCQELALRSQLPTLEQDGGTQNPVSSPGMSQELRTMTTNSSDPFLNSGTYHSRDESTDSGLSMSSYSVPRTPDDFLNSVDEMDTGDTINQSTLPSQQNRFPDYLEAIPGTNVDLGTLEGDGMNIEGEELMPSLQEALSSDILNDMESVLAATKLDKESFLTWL

Biological target: T1, Flag-MEIS2D (UniProt O14770)
T1 sequence: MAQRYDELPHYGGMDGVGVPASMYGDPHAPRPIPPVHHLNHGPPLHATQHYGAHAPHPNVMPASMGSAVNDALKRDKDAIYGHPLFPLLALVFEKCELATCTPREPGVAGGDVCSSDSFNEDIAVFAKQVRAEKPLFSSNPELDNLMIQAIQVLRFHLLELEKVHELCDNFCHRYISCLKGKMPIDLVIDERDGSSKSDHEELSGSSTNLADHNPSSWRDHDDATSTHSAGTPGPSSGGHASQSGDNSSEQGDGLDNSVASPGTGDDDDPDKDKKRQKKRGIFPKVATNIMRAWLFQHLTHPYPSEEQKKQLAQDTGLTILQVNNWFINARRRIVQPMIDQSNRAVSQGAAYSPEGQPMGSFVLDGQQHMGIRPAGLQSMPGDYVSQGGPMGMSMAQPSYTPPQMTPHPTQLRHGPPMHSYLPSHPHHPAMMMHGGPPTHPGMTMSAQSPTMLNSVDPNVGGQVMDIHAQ
Test: co-IP; HCC-LM3 cells transfected with Flag-MEIS2C or Flag-MEIS2D; lysates sequentially immunoprecipitated; immunoblot with CDC73, β-catenin and YAP antibodies

For “Yes-associated protein (YAP) (from UniProt P46937 1-504)”, the binding was “binds”.
